Measurements: PubChem BioAssay AID651640 (Broad Institute, 2012)
Where “and” joins values, the source holds several entries; their conditions need not be identical. Identical values can stand only once. Out of some 350,000 compounds screened, about 6,000 (1.7%) were called active. This list was built around the results that the source calls inconclusive (neither active nor inactive); the mix of calls is not that of the screen. Rule as the data show it: active = CPE inhibition above about 20% (passing the limit was not always enough); inconclusive = no clear call, values can overlap the other calls; tested in BHK-21 cells. The source holds several records for some structures; these can differ, active in one and inactive in another.

assay: protection of cells from dengue 2 killing – plate reader, single concentration, primary screen (AID 651640); settings: DENV2-infected cells, cytopathic effect rescue, at 9.99 µM, hits give high values;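 also: 0% = median of neutral control wells and 100% = median of positive control wells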

SMILES	CPE inhibition
Cc1cccc(CN2C[C@]34C=C[C@@H](C[C@@H]3S2(=O)=O)O4)c1	active: 48.1%
CSc1nc(N(C)C)nc(N2CC(=O)N(CCNS(=O)(=O)c3ccc(C)cc3)C2=N)n1	inactive: -10.1%
COc1cccc(N2CCc3c(C)nc4ccc(Cl)cc4c32)c1	active: 41.5%
C[C@H]1CN([C@@H](C)CO)C(=O)Cc2cc(NC(=O)Nc3ccc(F)cc3)ccc2O[C@@H]1CN(C)S(=O)(=O)c1ccc(F)cc1	inactive: 15.4%
CC=Cc1ccc2n(c1=O)C[C@@H]1[C@@H](CO)[C@H](C(=O)NCC)N(C(=O)C3CCOCC3)[C@H]21 (mixture of isomers)	inactive: 4.63%
CC(=O)NCCNc1ccc([N+](=O)[O-])cc1C#N	inconclusive: 20%
Cc1ccc(CNC(=O)CCCn2nc(C)c3c(C)n(-c4ccccc4)nc3c2=O)cc1	inconclusive: 37.9%
c1ccn2cc(CSc3nnc4ccccn34)nc2c1	inconclusive: 33%
CN(C)C(CNC(=O)CCC(=O)c1ccc(Br)cc1)c1ccccc1 (stereo unspecified)	inactive: -0.0385%
O=C(COc1ccccc1[N+](=O)[O-])Nc1ccc2oc(=O)ccc2c1	inconclusive: 31%
COc1ccc(NC(=O)CN2C(=O)NC(C)(Cc3ccc(OC)c(OC)c3)C2=O)cc1 (stereo unspecified)	inactive: -1.86%
O=C(C[C@@H]1CC[C@H]2[C@@H](COC[C@H](O)CN2C(=O)Nc2ccc(Cl)cc2)O1)NCCc1ccncc1	inconclusive: 29.3%
Cc1cc(NC(=O)CS(=O)(=O)Cc2ccccc2)no1	inconclusive: 27.4%
Cc1ccc(S(=O)(=O)N(C)C[C@H]2OCc3cn(nn3)CCCC(=O)N([C@H](C)CO)C[C@@H]2C)cc1	inconclusive: 27.2%
C[C@@H]1CCCCO[C@@H](CN(C)CC2CC2)[C@@H](C)CN([C@H](C)CO)C(=O)c2cc(NS(=O)(=O)c3cccs3)ccc2O1	inconclusive: 27.3%
O=C(Nc1ccc(F)cc1)N1CCCCN2[C@H](CO)[C@@H](c3ccc(C4=CCCCC4)cc3)[C@H]2C1	active: 28.8%
CCCNC(=O)C[C@H]1CC[C@@H]2[C@H](COC[C@@H](O)CN2C(=O)C2CCOCC2)O1	inconclusive: 31.4%
O=C(c1cccc(S(=O)(=O)N2CCOCC2)c1)N1CCN(S(=O)(=O)c2cccc([N+](=O)[O-])c2)CC1	inactive: -10.3%
Cc1noc(C)c1S(=O)(=O)N(C)C[C@@H]1Oc2ccc(NC(=O)NC3CCCCC3)cc2CC(=O)N([C@@H](C)CO)C[C@@H]1C	inactive: 0.175%
CNC(=O)NC(=O)CSc1nc(-c2cccs2)c(C#N)c(=O)[nH]1	inconclusive: 23.4%
COC(=O)[C@]12C[C@H](CC(=O)NCCCN3CCCC3=O)C(=O)N(Cc3ccc4c(c3)OCO4)C1=C[C@H](COCc1ccccc1)O[C@@H]2C	inconclusive: 24.6%
COc1ccc(-n2nc3c(c2NC(=O)c2ccccc2S(=O)(=O)C(F)F)CS(=O)(=O)C3)cc1	inconclusive: 20.4%
CCCSC1=NN2CCCC(=O)N=C2S1	inconclusive: 28.6%
C[C@H](O)C#Cc1ccc2c(c1)O[C@H](CN(C)Cc1ccccn1)[C@@H](C)CN([C@@H](C)CO)S2(=O)=O	inactive: 3.01%

SMILES	CPE inhibition
C[C@@H]1CN([C@H](C)CO)C(=O)c2cccc(NC(=O)c3ccc(-c4nccs4)cc3)c2O[C@@H]1CN(C)C(=O)Nc1ccc(F)cc1	active: 62.9%
COc1cccc2c1OCC([C@@H]1C[C@H]3CN(Cc4cccc(Cl)c4)C(=O)[C@]34CCCN14)=C2	inconclusive: 44.3%
COc1cc(OC)cc(-c2oc(=O)c3cc(OC)c(OC)cc3c2C#CCCO)c1	active: 29.9%
CC(C)CC(=O)NC(c1ccccc1)c1c(O)ccc2ccccc12 (stereo unspecified)	inconclusive: 23.9%
N#C[C@@H]1[C@@H](c2ccccc2-c2ccccc2)[C@H](CO)N1C(=O)Cc1cccnc1	inactive: -0.113%
Nc1cc(N)nc(SCc2ccccc2Cl)n1	inconclusive: 57.5%
COc1ccccc1CN1C[C@@H](C)[C@H](OC)CN(C)C(=O)c2ccc(NC(=O)Nc3ccccc3OC)cc2OC[C@H]1C	inactive: -0.169%
CCCCc1nc(Cl)c(CO)n1Cc1ccc(-c2ccccc2-c2nnn[nH]2)cc1	inactive: 1.05%
CN1CCN(C(=O)C2=C[C@@H](c3ccc(C(F)(F)F)cc3)C[C@@H](OCc3ccc(CO)cc3)O2)CC1	active: 77.8%
C/C=C/c1ccc([C@H]2[C@@H](CNS(C)(=O)=O)N(CC3CCCC3)[C@H]2CO)cc1	active: 50.7%
CCOc1ccc(/C=N/Nc2cc(N3CCOCC3)ncn2)c(O)c1	inconclusive: 37%
C/C=C/c1ccc([C@@H]2[C@H](CO)N3C(=O)CN(C(=O)Nc4ccccc4F)C[C@@H]23)cc1	inconclusive: 21.9%
N#C/C(=C/C1=C(N2CCOCC2)C(=C/c2cccc([N+](=O)[O-])c2)/CC1)C(=O)Nc1ccccc1F	inconclusive: 31%
CCc1nc2c(s1)CCc1onc(-c3ccc(Cl)cc3)c1-2	inconclusive: 51.7%
Cc1ccc(NC(=O)c2nc[nH]c2C(=O)N2CCN(C(=O)OC(C)(C)C)CC2)cc1	inconclusive: 71.9%
COc1cccc(Nc2cc(C)nc3nc(C)nn23)c1	inconclusive: 21.5%
CC(=O)c1ccc(OCCCC(=O)OCC(=O)Nc2ccc3[nH]c(=O)[nH]c3c2)cc1	inconclusive: 43.2%
COc1ccc(C(=O)N2CCN(c3ccc(F)cc3)CC2)cc1S(=O)(=O)NC1CC1	inconclusive: 63.9%
COc1ccc2[nH]c3c(c2c1)CCN1C(=O)N([C@@H](C)C(=O)NCc2ccc(F)cc2)C(=O)[C@]31C	inconclusive: 70.1%
O=C(C[C@@H]1C=C[C@H](NC(=O)NC2CCCCC2)[C@H](CO)O1)NCc1ccccc1	inconclusive: 33.2%
O=C(NCCc1ccncc1)[C@@H]1N[C@@H]2c3ccc(/C=C/c4ccccc4)c(=O)n3C[C@@H]2[C@H]1CO	inactive: -1.84%
CCC(=O)N[C@H]1C=C[C@H](CC(=O)NCc2cc(F)cc(F)c2)O[C@@H]1CO	inconclusive: 21.2%
COc1cc(NC(=O)c2cc(S(=O)(=O)N3CCCCC3)ccc2N2CCOCC2)cc(OC)c1OC	active: 62.7%
O=C(C[C@@H]1CC[C@H]2[C@@H](COC[C@@H](O)CN2C(=O)c2cnccn2)O1)NCc1ccc(F)cc1	inactive: -4.57%

SMILES	CPE inhibition
C[C@@H]1CCCCO[C@@H](CN(C)C(=O)Nc2ccc(C(F)(F)F)cc2)[C@@H](C)CN([C@H](C)CO)C(=O)c2cc(NC(=O)C3CCCCC3)ccc2O1	active: 27.3%
COc1ccccc1-c1ccc([C@@H]2[C@H]3CN(S(=O)(=O)c4cn(C)cn4)CCCCN3[C@H]2CO)cc1	inconclusive: 20.6%
CC(=C1N=C(c2ccccc2)OC1=O)c1cccs1	inconclusive: 20.1%
C[C@H](c1ccccc1)N1C[C@@H](COCc2ccccc2)Oc2cc(N3CCC[C@H]3CO)ccc2S1(=O)=O	inconclusive: 23.5%
Nc1cc(=O)[nH]c(=O)n1CCCc1ccccc1	inconclusive: 30.3%
O=C(CCN1CCCCC1)N[C@H]1CC[C@H](CCNS(=O)(=O)c2ccc(Cl)cc2)O[C@@H]1CO	inactive: -6.48%
Cc1ccc(NC(=O)NC(=O)N(C(C)C)S(=O)(=O)c2ccc(C)cc2)cc1	inconclusive: 38.6%
O=C(COC(=O)CN1C(=O)NC2(CCCC2)C1=O)Nc1ccc(C(F)(F)F)cc1[N+](=O)[O-]	active: 31.9%
CC(C)NC(=O)Nc1cccc2c1O[C@H](CN(C)C)[C@@H](C)CN([C@@H](C)CO)C2=O	inactive: 12.9%
O=C(C(Cc1ccccc1)n1cccc1)N1CCc2ccccc21 (stereo unspecified)	inconclusive: 51.9%
COc1ccc(-c2ccc3c(c2)[C@H]2[C@H](CCN2C(=O)CN2CCOCC2)[C@@H](CO)N3)cc1	active: 100%
O=C(c1ccco1)N1CCN(Cc2ccc(F)cc2)CC1	inconclusive: 39.1%
C/C=C/c1cnc2c(c1)C(=O)N([C@H](C)CO)C[C@@H](C)[C@@H](CN(C)C(=O)NC1CCCC1)O2	inactive: -3.76% and inactive: -3.48% and inactive: -1.6%
COc1ccc2c3c(n(C)c2c1)[C@H](CO)N(S(C)(=O)=O)CC31CN(CC2CCOCC2)C1	inactive: 12.6%
CCOc1ccc(C2=CC(=O)C[C@H](c3ccc(OC)cc3)C2)cc1	active: 26%
C[C@@H]1CN([C@H](C)CO)C(=O)c2cc(NC(=O)c3ccncc3)ccc2O[C@@H](C)CCCCO[C@H]1CN(C)C(=O)Nc1ccc(F)cc1	active: 26.4%
C[C@H](CO)N1C[C@H](C)[C@@H](CN(C)S(=O)(=O)c2ccc(Cl)cc2)Oc2c(NC(=O)NC3CCCCC3)cccc2C1=O	active: 20.7%
COc1ccc(-n2nc(C(=O)NCC(=O)N3CCN(Cc4ccccc4)CC3)c3ccccc3c2=O)cc1	inconclusive: 53.8%
CC(=O)COc1cc(C)cc2oc(=O)cc(-c3ccccc3)c12	inactive: -4.87%
CS(=O)(=O)c1ccc2nc(NC(=O)CCN3C(=O)c4ccccc4C3=O)sc2c1	inactive: -7.68%
O=C(Nc1ccccc1)C1=C[C@H](c2ccccc2)C[C@H](OCCCCO)O1	inconclusive: 29.7%
CC=Cc1ccc2n(c1=O)C[C@H]1[C@H](CO)[C@@H](C(=O)OC)N(Cc3ccccc3)[C@@H]21 (mixture of isomers)	inconclusive: 33.7%
O=C(Nc1cc(F)ccc1F)N1CCCCN2[C@H](C1)[C@@H](c1ccc(-c3cccnc3)cc1)[C@@H]2CO	inactive: -3.6%
